One molecule from article PMC11843548 can be followed below.

These are yes or no findings as the source states them, for the method shown. Binding seen in cells or lysates may run through a third protein. Binding calls can cover weak binding; strength is not graded here. Where a sequence is shown, tags or fusion partners need not be part of it.

In the test the target is FLAG-tagged small-splice variant of TNC (full-length). Description: co-IP; FLAG-tagged TNC constructs and V5-tagged Wnt-2 co-overexpressed in HEK293; lysates in NDLB (50 mM Tris-HCl pH 7.4, 300 mM NaCl, 5 mM EDTA, 1% Triton X-100), 1 mg/mL, anti-FLAG antibody overnight at 4 °C, Protein A/G magnetic beads, 5 washes; V5-Wnt2 detected by immunoblotting. A general note: In western blotting, separated proteins are transferred to a membrane and probed.

B1: V5-tagged Wnt-2 (ligand, UniProt P09544 26-360)
chain: SWWYMRATGGSSRVMCDNVPGLVSSQRQLCHRHPDVMRAISQGVAEWTAECQHQFRQHRWNCNTLDRDHSLFGRVLLRSSRESAFVYAISSAGVVFAITRACSQGEVKSCSCDPKKMGSAKDSKGIFDWGGCSDNIDYGIKFARAFVDAKERKGKDARALMNLHNNRAGRKAVKRFLKQECKCHGVSGSCTLRTCWLAMADFRKTGDYLWRKYNGAIQVVMNQDGTGFTVANERFKKPTKNDLVYFENSPDYCIRDREAGSLGTAGRVCNLTSRGMDSCEVMCCGRGYDTSHVTRMTKCGCKFHWCCAVRCQDCLEALDVHTCKAPKNADWTTAT
As to B1, the binding entry is “binds weakly”.
